By UniProt entry, the sequences of proteins in these tests, tags left out.
UniProt Q8NER1, whole entry, looked up: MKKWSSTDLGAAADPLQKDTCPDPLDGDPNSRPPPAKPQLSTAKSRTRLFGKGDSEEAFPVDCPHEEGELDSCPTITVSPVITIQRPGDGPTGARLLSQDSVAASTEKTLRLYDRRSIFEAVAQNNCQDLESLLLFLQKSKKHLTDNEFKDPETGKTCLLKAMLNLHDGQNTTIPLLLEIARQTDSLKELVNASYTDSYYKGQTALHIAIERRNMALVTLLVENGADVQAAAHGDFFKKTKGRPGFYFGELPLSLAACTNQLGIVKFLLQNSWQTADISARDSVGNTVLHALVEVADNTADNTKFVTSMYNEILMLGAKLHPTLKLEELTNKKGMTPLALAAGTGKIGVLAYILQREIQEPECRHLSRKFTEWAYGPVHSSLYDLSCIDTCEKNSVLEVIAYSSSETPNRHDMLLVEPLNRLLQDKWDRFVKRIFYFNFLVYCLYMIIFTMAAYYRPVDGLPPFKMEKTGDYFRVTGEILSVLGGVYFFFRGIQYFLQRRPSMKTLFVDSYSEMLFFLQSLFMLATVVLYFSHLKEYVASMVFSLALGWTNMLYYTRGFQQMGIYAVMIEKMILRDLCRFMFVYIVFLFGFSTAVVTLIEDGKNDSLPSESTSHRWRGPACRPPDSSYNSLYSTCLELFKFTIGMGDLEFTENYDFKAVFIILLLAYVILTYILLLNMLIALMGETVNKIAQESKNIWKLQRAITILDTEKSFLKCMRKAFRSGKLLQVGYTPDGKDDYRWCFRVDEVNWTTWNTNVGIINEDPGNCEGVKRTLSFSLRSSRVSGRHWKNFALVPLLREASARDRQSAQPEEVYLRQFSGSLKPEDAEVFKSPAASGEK

About 620 (0.19%) of roughly 320,000 compounds were called active. Inconclusive results, whose numbers are uncertain, are shown with a selection of clear calls. Rule as the data show it: active = activation above about 80%; inconclusive = between about 30% and that limit; inactive = weaker than that.
Each molecule was assayed against Transient receptor potential cation channel subfamily V member 1 (Homo sapiens) (UniProt Q8NER1) (assay: HTS Assay for Compounds that Act as Agonists of the Vanilloid Receptor 1). Details: TRPV1-expressing cells, Fluo-8 calcium influx, agonist mode; at 8.33 µM, active compounds read high.
Excerpt: The transient receptor potential ion channel, family V, number 1, (TRPV1) is one of the most important molecular transducers of painful stimuli and a potential target for analgesic drug development. Although recent clinical trials with orthosteric antagonists have not produced a successful drug because of a hyperthermia side effect and their tendency to block thermal noxious pain, this ion channel is undeniably well placed in the pain pathway, and the idea of blocking pain signals before they enter the CNS is an excellent concept and of proven efficacy when TRPV1 agonists are used. We propose a new approach involving allosteric modulation to impose an activity-dependent constraint within the context of inflammation and tissue damage that would alter the responsiveness of the channel in a way that an orthosteric vanilloid antagonist cannot achieve. We believe that the allosteric modulator approach has not been explored for this target. The main goal of this proposal is to identify additional, new, potent allosteric modulators of TRPV1 that can be used to investigate TRPV1 function. Our recent report provides evidence of proof of concept, but the compounds are just at the edge of utility in terms of potency. […] The question of whether they can be used as analgesic agents is complex, but if suitable compounds are identified then testing for analgesic properties will be conducted. NIH Chemical Genomics Center [NCGC] NIH Molecular Libraries Probe Centers Network [MLPCN] MLPCN Grant: MH089480-1A1 Assay Submitter (PI): Michael Iadarola, National Institute of Dental and Cranofacial Research
Upon TRPV1 activation in TRPV1 cells, the channel opens and extracellular cations flow through the channel into the cytosol. A calcium binding dye (Fluo-8) becomes fluorescent when bound to calcium. This dye is pre-loaded into cells and is used as a marker for calcium influx. The amount of accumulated calcium is precisely quantified using the FDSS kinetic reader and the calcium dye. For the HTS assay, freshly prepared cells are plated at a density of 2000/well in 3 ul medium in 1536-well plates and cultured overnight at 35.5C. Cells will be loaded with 1 ul of the homogeneous calcium dye (ABD Bioquest) at room temperature for 40 to 90 minutes. Plates will be loaded into the FDSS kinetic reader and a 1 sec / cycle for 10 second baseline signal will be measured. Compound library will then be added with a pintool at 23 nl and measured kinetically for 3 minutes. This portion of the read is considered the agonist portion of the screen. Following the 3 minutes of incubation, an on board pipettor will deliver 1 ul of capsaicin for a final concentration equal to the EC20. Signal will be measured kinetically for an additional 2 minutes. This portion of the read is considered the allosteric enhancer portion of the screen. The FDSS reader has a standard filter set capable of measuring calcium bound Fluo-8 (ex=480 and em=520 nm).
With `COc1ccc(NC(C)C(=O)Nc2ccc(C(C)(C)C)cc2)cc1Cl` (stereo not given) the activation was inconclusive: 46.5%. With `CCCCNC(=S)Nc1ccccc1Cc1ccccc1` the activation was inconclusive: 51%. With `c1c2c(cc3sc(N4CCOCC4)nc13)OCO2` the activation was inactive: -1.79%. `O=C(CN(c1ccc(Cl)c(C(F)(F)F)c1)S(=O)(=O)c1ccccc1)N1CCOCC1` was tested, and the activation was inconclusive: 68.4%. In the case of `Cc1ccccc1NC(=O)CCCSc1nc2ccccc2s1`, the activation is reported as inconclusive: 48.4%. In the case of `COc1ccccc1N(C)S(=O)(=O)c1ccc(Cl)c(C(=O)OCc2c(C)noc2C)c1`, the activation is reported as inactive: 10.7%. With `CCCCc1ccc(NC(=S)N2CCN(C(=O)OCC)CC2)cc1` the activation was inconclusive: 32.7%. In the case of `COc1cc(C(=O)OCC(=O)c2cc(C)n(C)c2C)cc(OC)c1OC`, the activation is reported as inactive: 2.84%. For `CCNC(=S)/N=C(\N)Nc1nc(C)c2cc(C)ccc2n1`, the activation was inactive: 7.24%. In the case of `CN(C)C(=O)CSc1nnc(C23CC4CC(CC(C4)C2)C3)o1`, the activation is reported as inconclusive: 58.9%. `O=C(N/N=C/c1cccc([N+](=O)[O-])c1)c1cc2ccccc2o1` was tested, and the activation was inconclusive: 59.9%. With `COc1ccc2c(c1)OC1=C(C(=O)CCC1)C2C1=C(O)CCCC1=O` (stereo not given) the activation was inactive: -0.469%. For `C/C(=N\NC(=S)Nc1ccccc1)C1Cc2ccccc2C(=O)O1` (stereo not given), the activation was inactive: 0.731%. In the case of `CC(=O)c1cccc(NC(=O)C2CCN(S(=O)(=O)c3cccs3)CC2)c1`, the activation is reported as inconclusive: 75.9%. `O=C(Nc1cc(C(F)(F)F)ccc1N1CCCC1)c1ccc2c(c1)OCO2` was tested, and the activation was inconclusive: 41.4%. `CC1CCCCC1NC(=O)Cn1c(CN2CCCCC2)nc2ccccc2c1=O` (stereo not given) was tested, and the activation was inconclusive: 54.4%. For `COc1ccc(NC(=O)CSc2nc3c(oc4ccccc43)c(=O)n2Cc2ccco2)cc1Cl`, the activation was inactive: 4.95%. `O=C(N1CCCCC1)N1CCN(C(c2ccccc2)c2ccccc2)CC1` was tested, and the activation was inconclusive: 43.1%. `COc1ccc(CNC(=O)c2cc3ccccc3o2)cc1OC` was tested, and the activation was inconclusive: 56.8%. `Cc1ccc(C(=O)CSc2nn3c(=O)c(C(C)(C)C)nnc3s2)cc1` was tested, and the activation was inconclusive: 37.9%. For `c1ccc(-n2c(SCC3CCCCO3)nnc2-c2cccs2)cc1` (stereo not given), the activation was inconclusive: 32.6%. With `Cc1ccc(CCNC(=O)C2CCC(=O)N(Cc3ccccc3F)C2)o1` (stereo not given) the activation was inactive: -2.42%. `BrC(/C=N/Nc1nc(N2CCOCC2)nc(N2CCOCC2)n1)=C/c1ccccc1` was tested, and the activation was inconclusive: 64.7%. For `CN1CCN(C(=S)NC(=O)c2ccco2)CC1`, the activation was inactive: -6.14%. With `Cc1ccc(-c2ccc(SCC(=O)c3ccccc3)nn2)cc1` the activation was inconclusive: 38.5%. For `COc1cc(-c2nc(Cc3c(F)cccc3Cl)no2)cc(OC)c1OC`, the activation was inconclusive: 43.1%. `COc1ccc(/C=C2/C(=O)N(Cc3ccccc3)N=C2C)cc1` was tested, and the activation was inconclusive: 40.9%. With `O=C1CC(N(CCc2ccccc2)C(=S)Nc2ccccc2)C(=O)N1c1ccc(F)cc1` (stereo not given) the activation was inactive: 28.8%. For `CC(Cc1cccs1)NC(=O)Nc1ccc([N+](=O)[O-])cc1` (stereo not given), the activation was inconclusive: 58.9%. In the case of `Cc1ccc(CNC(=O)CN(c2cccc([N+](=O)[O-])c2)S(C)(=O)=O)cc1`, the activation is reported as inactive: -0.9%. With `NS(=O)(=O)c1ccc(NC(=O)CSc2nc3c(cnn3-c3ccccn3)c(=O)[nH]2)cc1` the activation was inactive: -2.77%. In the case of `COc1cccc(NC(=O)CN(C)C(=O)c2ccc(-c3cccc(C(F)(F)F)c3)o2)c1`, the activation is reported as inconclusive: 59.2%. `O=C(Nc1ccc2cn[nH]c2c1)c1ccccc1F` was tested, and the activation was inconclusive: 41.1%. `CC1(C)Cc2ccccc2-c2nnc(SCC(=O)N3CCN(c4ccccc4)CC3)n21` was tested, and the activation was inactive: 0.403%. In the case of `Cc1ccc(-c2nn(-c3cc(Cl)ccc3[N+](=O)[O-])c(=O)c3ccccc23)cc1C`, the activation is reported as inactive: 6.39%. For `CC(C)c1cc(Br)ccc1OCCN1C(=O)NC(C)(C)C1=O`, the activation was inconclusive: 42.7%. With `S=c1[nH]nc(-c2ccccn2)n1/N=C/c1ccc(Br)s1` the activation was inactive: -0.835%. With `COc1cc(OC)cc(-c2c(-c3cccs3)c3cc(-c4ccc5cc[nH]c5c4)ccc3n2C)c1` the activation was inactive: 3.21%. `CSCc1ccc(C(=O)Nc2ccc(C(N)=O)cc2)cc1` was tested, and the activation was inconclusive: 79.1%. `CCOC(=O)/C(C#N)=C1\C(=O)N(Cc2ccccc2)c2ccccc21` was tested, and the activation was inactive: 2.13%. `CC(C)N(C(=O)CSc1nc(COc2ccccc2)nc2ccccc12)C(C)C` was tested, and the activation was inconclusive: 42.7%. In the case of `COc1ccc(Br)c(C(=O)OCC(=O)NC2CCCCCC2)c1`, the activation is reported as inconclusive: 41.8%. In the case of `O=C(CCc1cn(Cc2ccc(F)cc2)c2ccccc12)N1CCOCC1`, the activation is reported as inconclusive: 63.2%. In the case of `O=C(c1cc2cc(Br)ccc2o1)N1CCCCC1`, the activation is reported as inconclusive: 53.3%. In the case of `CCCCCCN1C=CC(=C/C=C(\C#N)C(=O)OCC)C=C1`, the activation is reported as inconclusive: 52%. In the case of `O=C(COC(=O)C1CCN(/C=C/C(=O)C(F)(F)F)CC1)Nc1cccc(F)c1`, the activation is reported as inconclusive: 67.7%. For `O=C(Cc1ccc([N+](=O)[O-])cc1)OCc1c(F)cccc1Cl`, the activation was inconclusive: 35.5%. `N#C/C(=C\c1ccccc1)C(=O)NCc1ccc(F)cc1` was tested, and the activation was inconclusive: 33.3%. `COc1ccc(-c2[nH]c(-c3ccc4c(c3)OCO4)nc2-c2ccccc2)cc1` was tested, and the activation was inactive: 9.92%. `Cc1cccc(/C=C2/S/C(=N/N=C3\CC4CCC3(C)C4(C)C)NC2=O)c1` (stereo not given) was tested, and the activation was inconclusive: 61.4%. For `O=C(Nc1ccccc1)Nc1ccc(Br)cc1F`, the activation was inconclusive: 57.9%. For `Clc1cccc(Cl)c1COc1ccccc1CNn1cnnc1`, the activation was inconclusive: 62.3%. For `COc1ccc(O)c(CN2CCN(C/C=C/c3ccccc3)CC2)c1`, the activation was inactive: 1.33%. With `Cc1ccc(NC(=O)Cn2cccc2)cc1Cl` the activation was inconclusive: 41.8%. In the case of `Cc1cc(C)c2nc(N3CCC(C(=O)NCc4ccccn4)CC3)sc2c1`, the activation is reported as inconclusive: 31.1%. `Cc1c(F)cccc1NC(=O)CCC(=O)O` was tested, and the activation was inactive: -0.0733%. For `O=C(NCCN1CCOCC1)c1cc2sccc2n1Cc1ccc(Cl)cc1`, the activation was inconclusive: 45.2%. `Cc1ccc2cc(-c3noc(C(C)(C)C)n3)c(=O)[nH]c2c1` was tested, and the activation was inactive: 1.4%. For `COc1ccc(NC(=O)CCN2CCN(c3ccc(F)cc3)CC2)cc1`, the activation was inactive: 11.4%. In the case of `COc1cccc(N2C(=O)CN(Cc3ccc(OC)c(OC)c3)C2=S)c1`, the activation is reported as inconclusive: 43.6%. `Cc1c(C(=O)N(C)C)sc2c1c(=O)n(-c1ccc(Cl)c(Cl)c1)c(=O)n2CC(=O)Nc1ccc(Br)cc1F` was tested, and the activation was inactive: -1.1%. With `CC(C)(C)c1ccc(-n2ncc3c2CCCC3NC(=O)c2cnccn2)cc1` (stereo not given) the activation was inconclusive: 41.4%. With `CS(=O)(=O)ON=C1CCN(S(=O)(=O)c2ccccc2)CC1` the activation was inactive: 2.3%. `CC(CCc1ccco1)NC(=O)Nc1cccc(F)c1` (stereo not given) was tested, and the activation was inconclusive: 72.6%. `Cc1cc(N2CCCC(C(=O)Nc3cccc(Cl)c3)C2)n2ncnc2n1` (stereo not given) was tested, and the activation was inconclusive: 49.2%. In the case of `CCOc1cc(C2NN=C(c3ccccc3)S2)ccc1OCc1ccc(F)cc1` (stereo not given), the activation is reported as inactive: -1.1%. `CC(NC(=O)c1ccccc1F)c1cccc2ccccc12` (stereo not given) was tested, and the activation was inconclusive: 49.6%. With `C=CCN1C(=O)C2(OCCCO2)c2cc(CCCC)ccc21` the activation was inconclusive: 34.6%. In the case of `COc1ccccc1CCN1CCCC(CN(C)C(=O)c2ccco2)C1` (stereo not given), the activation is reported as inactive: -2.5%. In the case of `NC(=O)c1ccc(Oc2ccc3c(c2)CCC3)c([N+](=O)[O-])c1`, the activation is reported as inconclusive: 39.6%. For `COc1ccc(CNC(=O)COC(=O)CO/N=C(\C)c2ccc3c(c2)OCO3)cc1`, the activation was inconclusive: 30.9%. `S=C(NCc1ccco1)Nc1cccc(Cl)c1` was tested, and the activation was inconclusive: 55%. In the case of `CCOc1nc(Nc2ccc(Cl)cc2)nc(OCC)n1`, the activation is reported as inconclusive: 69.9%. With `Cc1cccc2c1-c1sc(C(=O)Nc3cccnc3)cc1CO2` the activation was inconclusive: 51.5%. With `CCN(CC)CCN(Cc1cc2cc(C)c(C)cc2[nH]c1=O)C(=S)NCc1ccco1` the activation was inconclusive: 34.4%. With `Cc1cc2nc(-c3ccc(SCC(=O)NC(C)C)nc3)[nH]c2cc1C` the activation was inactive: -1.51%. `OC1CCCN(CC(O)COc2ccc(-c3ccccc3)cc2)C1` (stereo not given) was tested, and the activation was inactive: 5.76%. For `CCOC(=O)c1cc(-c2ccc(OC)cc2)nn1-c1ccc(C(=O)O)cc1`, the activation was inactive: -1.32%. With `CCCNc1c(NS(=O)(=O)c2ccc3c(c2)CCCC3)c(=O)oc2ccccc12` the activation was inconclusive: 39.6%. For `COC(=O)c1sccc1NC(=O)Nc1cc(C)ccc1C`, the activation was inconclusive: 34.1%. `CC(C)(C)c1ccc(-n2ncc3c2CCCC3NC(=O)C2=NNC(=O)CC2)cc1` (stereo not given) was tested, and the activation was inconclusive: 57.1%. `CCCCN(CCCC)CCNC(=O)c1cn(CC)c2ccc(S(=O)(=O)N3CCCC3)cc2c1=O` was tested, and the activation was inconclusive: 66.6%. For `O=C(NCCc1ccccc1)c1cc2ncc(Br)cn2n1`, the activation was inconclusive: 55.8%. `O=C(Nc1ccncc1)Nc1ccc(Cl)cc1Cl` was tested, and the activation was inconclusive: 47.5%. With `Cc1ccc(Nc2ncnc3sc(C)c(C)c23)cc1` the activation was active: 87%. With `C=CCc1c(C)nc(C)nc1N/N=C/c1ccc([N+](=O)[O-])cc1` the activation was inactive: -3.32%. `Cc1cccc2c1cnn2C(=O)CCC(=O)N1CCC(C)CC1` was tested, and the activation was inconclusive: 63.4%. For `Cc1ccc(S(=O)(=O)N2CCC(=O)N(C(COCc3ccc(C(F)(F)F)cc3)C(C)C)CC2)cc1` (stereo not given), the activation was inconclusive: 39.8%. With `COc1ccc(NC(=O)C2CC(c3ccc(Cl)cc3)=NO2)cc1` (stereo not given) the activation was inconclusive: 43%. In the case of `CN1CCN(C(=O)C2=C[C@@H](C3CCCCC3)C[C@@H](OCc3ccc(CO)cc3)O2)CC1`, the activation is reported as inconclusive: 43.1%.
Also: 0% is about no effect.
